Where two headings read alike, the source gives them in different places. These are yes or no findings as the source states them, for the method shown. In cells and extracts the contact can be indirect. Some binding calls cover weakened binding; strength is not graded here. Where a sequence is shown, tags or fusion partners need not be part of it. Each block holds one molecule with its values, some of them ahead of it.
Legend:
Experiment in all cases: co-IP; Neuro2A cells co-transfected with the tagged constructs (3 µg DNA each), lysed after 48 h in RIPA buffer (50 mM Tris/HCl pH 8, 100 mM NaCl, 1 mM EDTA, 0.1% SDS, 1% Nonidet P-40, 0.5% sodium deoxycholate); lysate incubated overnight at 4 °C with antibodies (Flag, GFP or c-myc) bound to protein G-Sepharose, washed with RIPA; western blot; bound protein normalised to total protein and to the immunoprecipitated bait
[1] = target: T1, GFP-DLGAP4 (wild type human Disks large-associated protein 4) (human) (UniProt Q9Y2H0)
T1 sequence: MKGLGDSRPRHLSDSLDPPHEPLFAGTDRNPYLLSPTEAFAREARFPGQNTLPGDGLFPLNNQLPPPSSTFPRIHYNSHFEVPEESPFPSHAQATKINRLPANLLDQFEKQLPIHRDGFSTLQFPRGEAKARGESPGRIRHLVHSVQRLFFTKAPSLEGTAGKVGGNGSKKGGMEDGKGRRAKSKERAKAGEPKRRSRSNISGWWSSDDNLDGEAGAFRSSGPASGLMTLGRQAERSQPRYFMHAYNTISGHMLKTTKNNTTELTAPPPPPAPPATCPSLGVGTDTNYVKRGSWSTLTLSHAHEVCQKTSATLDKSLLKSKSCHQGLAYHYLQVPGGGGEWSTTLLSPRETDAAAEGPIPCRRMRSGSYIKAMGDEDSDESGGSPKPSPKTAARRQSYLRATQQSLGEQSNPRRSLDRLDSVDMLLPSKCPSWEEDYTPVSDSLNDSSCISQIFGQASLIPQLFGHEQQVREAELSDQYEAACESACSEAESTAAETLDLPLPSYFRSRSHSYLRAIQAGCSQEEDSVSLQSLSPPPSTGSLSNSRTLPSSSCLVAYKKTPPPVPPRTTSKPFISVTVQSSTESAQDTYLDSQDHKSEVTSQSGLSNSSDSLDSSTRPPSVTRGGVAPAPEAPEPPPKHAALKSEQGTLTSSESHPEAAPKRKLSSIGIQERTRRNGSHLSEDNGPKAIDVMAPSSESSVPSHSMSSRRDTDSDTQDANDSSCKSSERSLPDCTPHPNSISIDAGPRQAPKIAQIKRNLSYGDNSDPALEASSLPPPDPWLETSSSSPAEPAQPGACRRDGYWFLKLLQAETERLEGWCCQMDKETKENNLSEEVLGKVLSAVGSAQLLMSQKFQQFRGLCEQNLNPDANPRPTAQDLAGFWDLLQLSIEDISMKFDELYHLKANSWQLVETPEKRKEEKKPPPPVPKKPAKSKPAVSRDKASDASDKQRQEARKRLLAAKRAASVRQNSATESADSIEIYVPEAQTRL

Amino acid sequences for entries named in this document (tags omitted).
UniProt Q60598: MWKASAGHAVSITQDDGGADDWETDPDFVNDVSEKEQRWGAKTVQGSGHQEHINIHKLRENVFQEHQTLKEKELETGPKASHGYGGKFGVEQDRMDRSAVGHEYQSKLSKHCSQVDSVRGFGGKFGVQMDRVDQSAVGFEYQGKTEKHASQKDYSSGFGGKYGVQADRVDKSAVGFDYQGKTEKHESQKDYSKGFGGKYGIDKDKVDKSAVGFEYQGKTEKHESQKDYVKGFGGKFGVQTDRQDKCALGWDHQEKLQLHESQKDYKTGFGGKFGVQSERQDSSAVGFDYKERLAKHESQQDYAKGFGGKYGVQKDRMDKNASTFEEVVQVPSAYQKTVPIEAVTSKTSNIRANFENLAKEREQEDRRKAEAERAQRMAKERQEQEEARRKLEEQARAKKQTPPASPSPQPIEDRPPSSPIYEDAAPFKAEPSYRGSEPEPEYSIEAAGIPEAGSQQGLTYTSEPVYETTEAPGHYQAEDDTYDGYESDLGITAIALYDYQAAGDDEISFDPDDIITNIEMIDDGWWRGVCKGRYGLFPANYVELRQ
UniProt Q8N122: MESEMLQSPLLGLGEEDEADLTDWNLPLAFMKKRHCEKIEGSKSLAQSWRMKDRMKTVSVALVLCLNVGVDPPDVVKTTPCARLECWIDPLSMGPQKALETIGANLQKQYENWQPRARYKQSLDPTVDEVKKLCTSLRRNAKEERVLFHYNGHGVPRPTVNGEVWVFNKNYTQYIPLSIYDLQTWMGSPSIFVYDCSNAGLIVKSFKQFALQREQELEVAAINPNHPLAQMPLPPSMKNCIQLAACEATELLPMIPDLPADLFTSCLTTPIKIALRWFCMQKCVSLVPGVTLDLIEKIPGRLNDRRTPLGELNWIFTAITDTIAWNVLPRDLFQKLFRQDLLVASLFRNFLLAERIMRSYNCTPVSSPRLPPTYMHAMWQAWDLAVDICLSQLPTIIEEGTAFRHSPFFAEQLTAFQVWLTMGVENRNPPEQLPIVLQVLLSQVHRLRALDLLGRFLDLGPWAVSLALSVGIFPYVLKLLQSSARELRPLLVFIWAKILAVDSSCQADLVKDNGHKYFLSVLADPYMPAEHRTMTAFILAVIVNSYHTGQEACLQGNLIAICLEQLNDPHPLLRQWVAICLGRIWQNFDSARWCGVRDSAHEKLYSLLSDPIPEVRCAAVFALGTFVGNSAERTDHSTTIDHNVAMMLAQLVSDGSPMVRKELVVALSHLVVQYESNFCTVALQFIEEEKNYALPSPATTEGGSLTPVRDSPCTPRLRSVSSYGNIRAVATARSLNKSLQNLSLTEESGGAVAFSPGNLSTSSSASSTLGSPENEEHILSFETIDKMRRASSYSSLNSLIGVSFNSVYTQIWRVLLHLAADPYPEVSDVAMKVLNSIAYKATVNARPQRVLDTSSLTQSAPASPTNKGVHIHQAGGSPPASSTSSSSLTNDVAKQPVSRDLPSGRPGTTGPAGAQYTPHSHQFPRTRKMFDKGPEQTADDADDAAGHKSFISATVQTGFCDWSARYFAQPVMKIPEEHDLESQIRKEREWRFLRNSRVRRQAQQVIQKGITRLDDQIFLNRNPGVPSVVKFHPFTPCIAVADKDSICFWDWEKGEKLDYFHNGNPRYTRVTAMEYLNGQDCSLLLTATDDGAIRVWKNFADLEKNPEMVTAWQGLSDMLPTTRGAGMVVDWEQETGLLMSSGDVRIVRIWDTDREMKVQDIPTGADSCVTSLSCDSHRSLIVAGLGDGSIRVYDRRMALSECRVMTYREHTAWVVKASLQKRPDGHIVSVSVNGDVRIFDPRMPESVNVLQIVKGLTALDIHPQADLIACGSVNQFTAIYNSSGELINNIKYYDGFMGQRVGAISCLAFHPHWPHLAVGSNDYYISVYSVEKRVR

[2] = target: T2, Flag-DLGAP4 (wild type human Disks large-associated protein 4) (human) (UniProt Q9Y2H0)
T2 sequence: T1 sequence

[3] = target: Flag-cortactin (mouse, pcDNA3-Flag-cortactin) (mouse) (UniProt Q60598)
[4] = target: T2, Flag-DLGAP4 (wild type human Disks large-associated protein 4) (human); remark: listed apart in the source

Molecule: Flag-cortactin (mouse, pcDNA3-Flag-cortactin) (from UniProt Q60598 1-546)
- binding [1]: binds

B1: GFP-DLGAP4 (wild type human Disks large-associated protein 4) (protein, UniProt Q9Y2H0-1 1-989)
chain: T1 sequence
- binding [3]: binds

B3: GFP-LGN (mouse, pEGFP-C1-LGN; coded by the GPSM2 gene) (protein, UniProt Q8VDU0 1-679)
chain: MEGNLISMREDHSFHVRYRMEASCLELALEGERLCKSGDCRAGVSFFEAAVQVGTEDLKTLSAIYSQLGNAYFYLHDYAKALEYHHHDLTLARTIGDQLGEAKASGNLGNTLKVLGNFDEAIVCCQRHLDISRELNDKVGEARALYNLGNVYHAKGKSFGCPGPQDTGEFPEDVRNALQAAVDLYEENLSLVTALGDRAAQGRAFGNLGNTHYLLGNFRDAVIAHEQRLLIAKEFGDKAAERRAYSNLGNAYIFLGEFETASEYYKKTLLLARQLKDRAVEAQSCYSLGNTYTLLQDYEKAIDYHLKHLAIAQELKDRIGEGRACWSLGNAYTALGNHDQAMHFAEKHLEISREVGDKSGELTARLNLSDLQMVLGLSYSTNNSMMSENIEIDGSLHGAGAKLGRRHSMENLELMKLTPEKVPNWNSEILAKQKPLIAKPSAKLLFVNRLKGKKYKSGSACTKVLQDASNSVDHRAPRSQKKISSDTIGDEGFFDLLRRFQSNRMDDQRCHLQGNCRTTSTAAASATPKLMKAPSVSVVSPNTDEFLDLLASSQSRRLDDQRASFSNLPGLRLTKGNSPSVLERLMTNDKKEPDEDFFDILVKCQGSRLDDQRCAPPSAATKGPTVPDEDFFSLILRSQAKRMDEQRVLLQRDPNRDSEFGLKELLQNNALLEFKHSGK
- binding [4]: binds

Other lines, results leading:

- binding [2]: binds
Molecule: HA-Raptor (human, HA-CMV-Raptor) (from UniProt Q8N122 1-1335)

- binding [4]: binds
B2: GFP-GKAP (mouse Dlgap1, pEGFP-C1-GKAP) (protein, UniProt Q9D415 1-992)
chain: MKGLSGSRSHHHGITCEAACDSLSHHSDHKPYLLSPVDHHPADHPYYTQRNSFQAECVGPFSDPLASSTFPRRHYTSQQELKDESALVPRTLATKANRLPTNLLDQFERQLPLSRDGYHTLQYKRTAVEHRSDSPGRIRHLVHSVQKLFTKSHSLEGPSKGSVNGGKASPDESQTLRYGKRSKSKERRSESKARSNASNASPTSPSWWSSDDNLDGDMCLYHTPSGVMTMGRCPDRSASQYFMEAYNTISEQAVKASRSNNDIKCSTCANLPVTLDAPLLKKSAWSSTLTVSRAREVYQKASVNMDQAMVKSEACQQERSCQYLQVPQDEWSGYTPRGKDDEIPCRRMRSGSYIKAMGDEDSGDSDTSPKPSPKVAARRESYLKATQPSLTELTTLKISNEHSPKLQIRSHSYLRAVSEVSINRSLDSLDPAGLLTSPKFRSRNESYMRAMSTISQVSEMEVNGQFESVCESVFSELESQAVEALDLPLPGCFRMRSHSYVRAIEKGCSQDDECVSLRSSSPPRTTTTVRTIQSSTGVIKLSSAVEVSSCITTYKKTPPPVPPRTTTKPFISITAQSSTESAQDAYMDGQGQRGDMISQSGLSNSTESLDSMKALTAAIEAANAQIHGPASQHMGSNAAAVTTTTTIATVTTEDRKKDFKKNRCLSIGIQVDDAEEPEKMAESKTSNKFQSVGVQVEEEKCFRRFTRSNSVTTAVQADLDFHDNLENSLESIEDNSCPGPMARQFSRDASTSTVSIQGSGNHYHACAADDDFDTDFDPSILPPPDPWIDSITEDPLEAVQRSVCHRDGHWFLKLLQAERDRMEGWCKLMEREERENNLPEDILGKIRTAVGSAQLLMAQKFYQFRELCEENLNPNAHPRPTSQDLAGFWDMLQLSIENISMKFDELHQLKANNWKQMDPLDKKERRAPPPVPKKPAKGPAPLIRERSLESSQRQEARKRLMAAKRAASVRQNSATESAESIEIYIPEAQTRL
